Reference: PMC10130090
No constants are given. Whether binding was seen depends on the method and setting. For some of these results: Binding seen in cells or lysates may run through a third protein. Some entries that bind do so weakly or less than the wild type.

Chains of the proteins cited; added tags and fusions are not shown.
UniProt P15884: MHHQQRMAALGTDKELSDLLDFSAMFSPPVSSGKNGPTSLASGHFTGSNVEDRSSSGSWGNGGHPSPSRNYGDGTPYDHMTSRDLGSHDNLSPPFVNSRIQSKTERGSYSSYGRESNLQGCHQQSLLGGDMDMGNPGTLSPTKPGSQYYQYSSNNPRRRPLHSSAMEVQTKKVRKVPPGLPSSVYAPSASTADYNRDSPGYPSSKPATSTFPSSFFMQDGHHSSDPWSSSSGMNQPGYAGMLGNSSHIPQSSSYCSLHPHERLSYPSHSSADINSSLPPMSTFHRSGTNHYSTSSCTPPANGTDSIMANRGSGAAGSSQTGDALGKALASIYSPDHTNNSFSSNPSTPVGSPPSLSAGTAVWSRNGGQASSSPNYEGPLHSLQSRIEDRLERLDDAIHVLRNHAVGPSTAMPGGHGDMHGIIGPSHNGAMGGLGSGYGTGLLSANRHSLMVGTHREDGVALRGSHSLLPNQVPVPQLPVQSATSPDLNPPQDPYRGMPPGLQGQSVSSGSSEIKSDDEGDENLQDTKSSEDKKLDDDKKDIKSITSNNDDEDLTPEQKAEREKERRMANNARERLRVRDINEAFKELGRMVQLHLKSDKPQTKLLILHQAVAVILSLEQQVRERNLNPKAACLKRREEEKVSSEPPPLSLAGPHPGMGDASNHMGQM
UniProt Q04206: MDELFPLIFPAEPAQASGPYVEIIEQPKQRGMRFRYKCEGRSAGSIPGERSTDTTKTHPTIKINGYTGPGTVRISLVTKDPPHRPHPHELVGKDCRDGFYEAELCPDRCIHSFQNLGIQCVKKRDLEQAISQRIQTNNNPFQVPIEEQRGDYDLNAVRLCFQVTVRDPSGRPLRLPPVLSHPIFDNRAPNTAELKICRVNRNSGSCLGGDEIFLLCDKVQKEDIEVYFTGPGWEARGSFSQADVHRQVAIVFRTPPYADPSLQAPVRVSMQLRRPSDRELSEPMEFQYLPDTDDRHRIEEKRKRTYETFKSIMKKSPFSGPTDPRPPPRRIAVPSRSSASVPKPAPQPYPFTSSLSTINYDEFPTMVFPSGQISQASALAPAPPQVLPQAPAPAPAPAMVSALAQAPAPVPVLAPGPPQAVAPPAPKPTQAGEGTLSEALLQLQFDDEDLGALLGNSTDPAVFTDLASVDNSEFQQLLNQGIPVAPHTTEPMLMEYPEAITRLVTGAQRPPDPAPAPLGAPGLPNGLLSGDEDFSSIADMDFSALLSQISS
UniProt O60260: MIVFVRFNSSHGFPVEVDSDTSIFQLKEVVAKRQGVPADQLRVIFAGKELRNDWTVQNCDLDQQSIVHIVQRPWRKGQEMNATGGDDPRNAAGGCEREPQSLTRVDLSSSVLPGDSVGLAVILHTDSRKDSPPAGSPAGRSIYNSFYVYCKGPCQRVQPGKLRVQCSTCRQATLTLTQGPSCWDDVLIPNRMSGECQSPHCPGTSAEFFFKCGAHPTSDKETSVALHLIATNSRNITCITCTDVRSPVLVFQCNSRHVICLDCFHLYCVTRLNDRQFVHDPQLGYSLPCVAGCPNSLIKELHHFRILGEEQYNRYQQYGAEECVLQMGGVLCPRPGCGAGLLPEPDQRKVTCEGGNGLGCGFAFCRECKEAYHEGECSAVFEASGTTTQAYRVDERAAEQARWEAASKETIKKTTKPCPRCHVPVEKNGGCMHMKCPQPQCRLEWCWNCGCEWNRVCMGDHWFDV
UniProt P35222: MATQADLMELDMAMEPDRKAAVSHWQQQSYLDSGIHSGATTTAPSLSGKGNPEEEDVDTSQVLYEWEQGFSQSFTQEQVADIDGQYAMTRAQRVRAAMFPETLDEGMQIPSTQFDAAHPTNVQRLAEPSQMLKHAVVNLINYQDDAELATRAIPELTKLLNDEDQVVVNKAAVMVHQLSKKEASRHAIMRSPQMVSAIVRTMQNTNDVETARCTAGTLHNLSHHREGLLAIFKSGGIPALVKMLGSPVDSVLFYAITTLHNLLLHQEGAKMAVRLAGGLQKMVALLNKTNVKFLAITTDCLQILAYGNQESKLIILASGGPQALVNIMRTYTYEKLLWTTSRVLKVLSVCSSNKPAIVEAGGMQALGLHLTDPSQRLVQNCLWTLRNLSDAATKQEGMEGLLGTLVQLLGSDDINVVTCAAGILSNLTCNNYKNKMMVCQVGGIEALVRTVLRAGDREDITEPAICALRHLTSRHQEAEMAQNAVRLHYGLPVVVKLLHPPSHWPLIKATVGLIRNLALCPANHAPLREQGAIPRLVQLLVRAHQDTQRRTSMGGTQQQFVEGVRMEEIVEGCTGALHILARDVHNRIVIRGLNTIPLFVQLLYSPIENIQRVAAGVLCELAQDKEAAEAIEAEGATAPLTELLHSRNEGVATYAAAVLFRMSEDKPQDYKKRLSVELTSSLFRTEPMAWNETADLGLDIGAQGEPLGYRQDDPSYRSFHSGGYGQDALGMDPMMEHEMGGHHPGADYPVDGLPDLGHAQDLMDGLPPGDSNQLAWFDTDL

Key:
[1] = target: Myc-ITF2B (UniProt P15884); test: pull-down; purified tagged proteins (affinity gels, from HEK293T) mixed in a test tube; binding buffer 25 mM HEPES pH 7.4, 150 mM KCl, 12.5 mM MgCl2, 10% glycerol, 1% NP-40, 0.1% BSA, 5 mM DTT, 1 h at 4 °C; pulled-down proteins immunoblotted; both purified
[2] = target: pcITF2 (UniProt P15884); test: co-IP; competition: ITF2B co-transfected in HEK293T with two partners, the plasmid of one of them increasing (1, 3 μg); immunoprecipitation-immunoblotting
[3] = target: Myc-ITF2B (UniProt P15884); test: as above
[4] = target: p65 (vector of Fig. 3A) (UniProt Q04206); test: co-IP; cells transfected with p65 vector, ITF2 vector or both; lysate precipitated with p65 antibody or control IgG, immunoblot
[5] = target: Flag-p65 (UniProt Q04206); test: pull-down; purified tagged proteins (affinity gels, from HEK293T) mixed in a test tube; binding buffer 25 mM HEPES pH 7.4, 150 mM KCl, 12.5 mM MgCl2, 10% glycerol, 1% NP-40, 0.1% BSA, 5 mM DTT, 1 h at 4 °C; pulled-down proteins immunoblotted; both purified
[6] = target: F/S-ITF2B (UniProt P15884); test: co-IP; tagged proteins co-expressed in HEK293T; lysate in 50 mM Tris-HCl pH 7.5, 150 mM NaCl, 1 mM EDTA, 1% Triton X-100, 5% glycerol; precipitated by the tag (α-Myc or α-Flag), immunoblot of the other tag
[7] = target: endogenous ITF2 (UniProt P15884); test: co-IP; endogenous proteins; with or without TNF stimulation (Supplementary Fig. S10A-E)
[8] = target: endogenous ITF2 (UniProt P15884); test: proximity ligation; Duolink fluorescent reagents, as specified by the manufacturer (Supplementary Fig. S10)

F/S-Parkin (from UniProt O60260 1-465) (enzyme)
binding [1]: binds

Flag-p65 (from UniProt Q04206 1-551)
binding [2]: binds | binding [3]: binds

HA-β-catenin (from UniProt P35222 1-781)
binding [3]: binds

ITF2 (vector of Fig. 3A) (from UniProt P15884 1-667)
binding [4]: binds

Myc-ITF2B (from UniProt P15884 1-667)
binding [5]: binds

Myc-PRKN (from UniProt O60260 1-465) (enzyme)
binding [2]: binds | binding [6]: binds

endogenous Parkin (from UniProt O60260 1-465) (enzyme)
binding [7]: binds | binding [8]: binds

endogenous p65 (from UniProt Q04206 1-551)
binding [7]: binds | binding [8]: binds

p-p65 (from UniProt Q04206 1-551)
binding [7]: binds
